## Screening data, single-dose tests

Measurements from “University of Dundee, Small-Polar-MMV Screening Library” (2021), ChEMBL document CHEMBL3988442.

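Phenotypic screen: M. tuberculosis growth, cholesterol and DPPC medium, 4 days; the read-out is not stated. Compounds at 500 µM. Direction is inferred from retests: higher values go with more growth inhibition. About 18,000 compounds were tested under these conditions; 5% (about 900) showed 50% or more at least once.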

The filed quantity is “Percent Effect” (%). The record does not define 0% and 100%; most values in the screen are far below 50% and negative numbers occur (in some assays of this library far below -100). The compounds are a random part of those screened.

structure	Percent Effect
CC(C)c1ccc(S(=O)(=O)C(C)C(N)=O)cc1 (stereo unspecified)	67.71%
COCCNC(=O)Nc1cc(Cl)ccc1OC	40.37%
CC(=O)c1c[nH]c(C(=O)NC2(C)CCS(=O)(=O)C2)c1 (stereo unspecified)	2.169%
OCC1(NCC2CC2)CCNCC1	-34.85%
OCCNC1CCC1	-14.76%
Cc1csc(CNC(=O)c2cc[nH]n2)n1	-9.392%
CC[C@H](CO)NCc1ccccc1	-11.29%
Cc1ccnc(NC(=O)NC2(C)CCC2)c1	-15.57%
CCCn1ccnc1CN(C)Cc1nc(C)no1	7.294%
CC(NC(=O)NCCCN1CCCC1=O)c1ccco1 (stereo unspecified)	-2.339%
O=C(CN1CCCC(O)C1)NCCCc1ccccn1 (stereo unspecified)	-2.172%
N#Cc1ccc(CN2CCCN(CCCO)CC2)cc1	33.25%
CC(N)CCc1ccc2c(c1)OCO2 (stereo unspecified)	51.74%
CN(C)C1CCN(c2ccc(N)nc2)C1 (stereo unspecified)	4.931%
CS(=O)(=O)c1ccc(NC(=O)NCc2ccco2)cn1	14.55%
COCCC1(CO)CCCN(Cc2c(C)n[nH]c2C)C1 (stereo unspecified)	3.923%
CN(CCNC(=O)c1cc[nH]n1)Cc1ccccc1	14.01%
NC1CCCN(c2ccccc2Cl)C1=O (stereo unspecified)	-21.14%
CCCn1ccnc1CNC(=O)CCNS(C)(=O)=O	4.954%
COC(=O)c1cccc(NC(=O)NC[C@@H]2CCCN2)c1	-1.86%
Cc1nc(CCNC(=O)c2ccc(=O)n(C)c2)sc1C	-7.682%
Cn1cc(NC(=O)Nc2ccc(F)cc2)c(C(N)=O)n1	22.38%
Cc1ccnc(NCCS(=O)(=O)NCC2CCC2)c1	68.25%
CC(C(=O)N(C)C)c1ccc2c(c1)OCCO2 (stereo unspecified)	10.02%
Cc1cccnc1NC(=O)C(C)NC(=O)c1ccoc1 (stereo unspecified)	-6.297%
Cc1cscc1-c1cccc(C(=O)N(C)C)n1	10.56%
COCCCSc1ccccc1S(C)(=O)=O	8.316%
CN(C)CC1(O)CCCN(CC(C)(C)C)C1=O (stereo unspecified)	-14.12%
C=C(C)CCOC(=O)c1cc(C(N)=O)cs1	80.28%
CN(CC(=O)N(CC(F)(F)F)C1CCCC1)S(C)(=O)=O	-7.843%
CCOC(=O)c1sc2ncn(CCC#N)c(=O)c2c1C	0.9737%
COc1cccc(NC(=O)CN(C)C(=O)C2CCC2)c1	24.13%
O=C(NCc1ccccc1OCC1CC1)c1c[nH]nn1	30.06%
CN(C)C(=O)CNC(=O)NCc1cc(F)ccc1Br	4.211%
O[C@H]1CCN(CC(F)(F)F)C1	-9.207%
CCCN1CCC(NC(=O)NCC(O)C2CC2)CC1 (stereo unspecified)	-9.381%
Cc1ccc(C(=O)NC2CCN(CC(N)=O)CC2)cc1	0.01782%
OCC1COCCN(Cc2c(F)cccc2Cl)C1 (stereo unspecified)	16.7%
CNC1CCN(Cc2ncc(C)c(OC)c2C)CC1	5.055%
CCCn1cc(C(=O)N2CCN(CCO)CC2)c(C)n1	-4.571%
CN(C)CCCOc1ccc(CN)cc1	26.76%
CSc1nnc(NC(C)(C)C)s1	41.94%
CCOc1ncc(C(=O)N(C)C)cc1Cl	-5.732%
Cc1ccc2c(c1)CC(=O)N2C	-9.03%
N#Cc1cccc(S(=O)(=O)NCCc2ccccn2)c1	16.02%
O=C(C1CCC1)N1CCCC(CN2CCOCC2)CC1 (stereo unspecified)	-5.86%
CC[C@H](C)[C@H](N)C(=O)NCCOc1nonc1C	-4.509%
Cc1cccc(N2CCC(N3CCOC(C)C3)CC2)n1 (stereo unspecified)	17.63%
CCN(CC(=O)N(C)C1CC1)c1cccc(CO)c1	18.12%
CN(C)C(=O)Nc1ccccc1OC(=O)N(C)C	-3.483%
O=C(NCC1CCN(C2CC2)C1)c1ccccc1F (stereo unspecified)	33.21%
CCCNC(=O)NC1CCN(CC)CC1	10.78%
NCCCOc1ncc(C(F)(F)F)cc1Cl	60.63%
CC(N)CCNS(=O)(=O)N1CCCCCC1 (stereo unspecified)	20.29%
NCc1cccc(-c2nc(-c3ccncc3)no2)c1	71.74%
O=C(CNc1cccc2c1CCCC2)N1CCNC1=O	-21.83%
Cc1cccc(NC(=O)NCCCn2cccn2)n1	4.827%
CC1(C)Oc2ccc(NC(=O)C3CCOC3)cc2O1 (stereo unspecified)	37.02%
CC(Cc1ccco1)NC(=O)NCC(C)(C)C(N)=O (stereo unspecified)	-1.161%
Nc1nc(C2CC(O)C2)cc(N2CC(O)C2)n1 (stereo unspecified)	12.68%
CCc1nnc(N2CCN(C(=O)c3ccco3)CC2)o1	23.85%
CCN1CCN(Cc2nc(-c3ccccc3)no2)CC1	25.54%
CCOC(=O)NCCC(=O)NCc1ccccn1	-2.205%
NC(=O)[C@@H]1Cc2ccccc2N1C(=O)C1CCOCC1	3.096%
Cc1ccc(CNC2(C(N)=O)CC2)cc1	5.935%
COC(=O)C(C)N(Cc1ccc(C(N)=O)cc1)C1CC1 (stereo unspecified)	-6.822%
CNCc1n[nH]c2c1CCCC2	-2.98%
CS(=O)(=O)CC1(CNc2ccc(C#N)cn2)CC1	-3.938%
CN1CCN(CCNC(=O)c2ccc(F)cc2)CC1	-10.36%
CC(C(=O)Nc1cncc(Br)c1O)n1cncn1 (stereo unspecified)	-7.289%
CCNC(=O)c1cc2ccccc2n1C	24.56%
CCC1C(=O)NCCN1Cc1coc(C(C)C)n1 (stereo unspecified)	-25.27%
Cc1nnsc1CN(C)CC(=O)Nc1ccn(C)n1	2.986%
OCC1CNc2c(F)cccc2C1 (stereo unspecified)	3.896%
COc1ccc(OC)c(CNc2nc(C)nn2C)c1	64.88%
c1ccc2c(c1)CCOC21CCNCC1	8.087%
CCCC(C#N)NC(=O)c1cccc2c1OCCO2 (stereo unspecified)	23.63%